Measured values from PubChem BioAssay AID1671190 (National Center for Advancing Translational Sciences (NCATS), 2021).
In all, about 580,000 compounds went through this assay and about 6,100 (1.1%) were called active. Inconclusive means that the source gave no clear call. Such entries were picked first, then a sample of the others. Calls come from the whole dose curve; as a rule, active = well fitted inhibition curve with a large enough effect; inconclusive = small, poorly fitted or top-dose-only effect, or another doubt; inactive = no such curve, though single readings can be large or run the other way. Where the call is inconclusive, the potency comes from a doubtful curve fit.

Chains of the proteins cited; added tags and fusions are not shown. Lines headed by an entry give the natural chain unless they say otherwise; changes in a name come on top.
UniProt P18054: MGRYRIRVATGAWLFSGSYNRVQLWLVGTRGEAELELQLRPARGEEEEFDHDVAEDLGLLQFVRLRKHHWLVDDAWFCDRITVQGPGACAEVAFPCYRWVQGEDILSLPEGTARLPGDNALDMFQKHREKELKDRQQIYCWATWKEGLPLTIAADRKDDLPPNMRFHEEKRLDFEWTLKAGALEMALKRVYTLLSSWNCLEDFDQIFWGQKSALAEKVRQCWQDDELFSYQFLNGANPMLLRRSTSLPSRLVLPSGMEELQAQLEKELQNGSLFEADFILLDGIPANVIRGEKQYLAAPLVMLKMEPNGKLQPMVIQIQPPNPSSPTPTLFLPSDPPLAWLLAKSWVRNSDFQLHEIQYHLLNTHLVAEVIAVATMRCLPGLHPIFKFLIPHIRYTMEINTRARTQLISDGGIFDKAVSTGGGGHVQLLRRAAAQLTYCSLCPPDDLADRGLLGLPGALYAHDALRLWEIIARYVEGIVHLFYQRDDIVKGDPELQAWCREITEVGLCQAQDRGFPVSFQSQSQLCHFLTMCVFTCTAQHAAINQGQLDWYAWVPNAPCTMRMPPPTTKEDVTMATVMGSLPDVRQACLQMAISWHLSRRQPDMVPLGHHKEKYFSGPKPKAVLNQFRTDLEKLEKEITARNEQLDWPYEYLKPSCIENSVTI

Molecular target: Polyunsaturated fatty acid lipoxygenase ALOX12 (Homo sapiens) (UniProt P18054)
Test: Primary qHTS assay for inhibitors of human arachidonate 12S-lipoxygenase (ALOX12): Round 2
Conditions: purified 12hLO, xylenol orange hydroperoxide absorbance; activity change, negative = inhibition: at 108 µM (top of the series) unless noted
Summary of the method: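 Hydroperoxide product was detected by ferrous iron/xylenol orange as the 573 to 405 nm absorbance ratio. Arachidonic acid at 40 uM (final) was turned over for 30 min at room temperature by 150 nM human 12hLO, pH 7.0 Hepes buffer, after 15 min compound preincubation.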
% is set by controls: 0 for no effect and ±100 for the full control effect; potency is the fitted concentration of half-maximal effect.

SMILES	Potency	activity change, negative = inhibition
Cc1nc([N+](=O)[O-])cn1CC(=O)c1ccc(Br)cc1	inconclusive: 31.6 µM [inhibitor, partial curve, poor fit]	–
Cc1cc(-c2csc(Nc3ccccn3)n2)ccc1F	inconclusive: 56.2 µM [inhibitor, partial curve, poor fit]	–
Cc1nc(SCC(=O)Nc2nccs2)c(C#N)c(C)c1C	inactive	–
Cc1cccc(OCC2(CNC(=O)N3CCOCC3)C[C@@H](O)[C@@H](O)C2)n1 (stereo not given in full)	inconclusive: 28.2 µM [inhibitor, full curve, poor fit]	–
Cc1ccc(OCC(=O)Nc2cc(C(C)(C)C)on2)cc1C	inactive	–
Nc1c(NCCN2CCOCC2)c2ccccc2oc1=O	inactive	–
CCCCCCSC1=C(C#N)C(c2ccccc2C)CC(=O)N1 (stereo not given)	inconclusive: 39.8 µM [inhibitor, partial curve, poor fit]	–
CCc1ccc(-c2noc(CCC(=O)Nc3nc4ccccc4n3CC)n2)cc1	inactive	–
CCCn1nc(C)cc1CN(C)C(=O)Cn1nc2n(c1=O)CCC(N)CC2 (stereo not given)	inconclusive: 8.91 µM [inhibitor, full curve]	–
COC(=O)c1sc2cccc(F)c2c1S(=O)(=O)Nc1ccc(N(C)C)cc1	inconclusive: 112 µM [inhibitor, partial curve, poor fit]	–
CCS(=O)(=O)c1ncc(Cl)c(C(=O)Nc2ccc(S(=O)(=O)N3CCCC(C)C3)cc2)n1 (stereo not given)	inactive	–
Cc1cccc([S+](=O)([O-])N2CCC3(CC2)OCCN(c2cccnc2)C3=O)c1	inconclusive: 63.1 µM [inhibitor, partial curve]	–
Cc1nc(CCNC(=O)c2c[nH]c3ccccc23)cs1	inactive	–
COc1cccc(N2C(=O)NC(=NC3CCCCC3)C23CCCN([S+](=O)([O-])c2cccc(OC)c2)C3)c1 (stereo not given)	–	inactive: 6.01% [at 6.33 µM]
Cc1nc2cccnc2n1CC1CCCN(S(=O)(=O)c2ccc(F)cc2F)C1 (stereo not given)	inactive	–
COc1ccc(Nc2ccccc2NC(=O)c2ccccc2Br)cc1	inactive	–
Cc1cc(C(=O)O)ccc1NS(=O)(=O)c1ccc(S(=O)(=O)N2CCCCC2)cc1	inactive	–
CCOC(=O)c1nc(S(C)(=O)=O)ncc1Cl	inactive	–
CN1CCCCC(NC(=O)CCl)C1=O (stereo not given)	inactive	–
CCCCn1c(CCC(=O)Nc2cccc(C)c2C)nc2c1c(=O)[nH]c(=O)n2CCC	inconclusive: 79.4 µM [inhibitor, partial curve, poor fit]	–
COc1ccc(CC(=O)OCC(=O)NC(=O)NC23CC4CC(CC(C4)C2)C3)cc1	inconclusive: 44.7 µM [inhibitor, partial curve, poor fit]	–
FC(F)(F)c1ccccc1Cc1c(-c2cccc(Br)c2)nc2ccc(Br)cn12	inconclusive: 79.4 µM [inhibitor, partial curve, poor fit]	–
Cc1ccc(NC(=S)NCCc2ccc(S(N)(=O)=O)cc2)cc1C	inconclusive: 44.7 µM [inhibitor, single point]	–

SMILES	Potency	activity change, negative = inhibition
O=C(NC1CCCC1)c1cc2c(F)cccc2s1	inactive	–
CN(C)CCCNCC(=O)c1c(-c2ccccc2)n(C)c2ccccc12	inconclusive: 0.355 µM [inhibitor, full curve, poor fit]	–
CCC1(C)Cc2c(sc3nc(SCC(=O)O)[nH]c(=O)c23)CO1 (stereo not given)	inconclusive: 31.6 µM [inhibitor, single point]	–
O=C(O)C/C(=C/c1ccsc1)c1nc2ccccc2s1	inconclusive: 44.7 µM [inhibitor, partial curve, poor fit]	–
COc1cc(/C=C/c2nc(C#N)c(N3CCCCC3)o2)cc(OC)c1OC	inactive	–
COc1ccc(Br)cc1/C=N/NC(=O)C[n+]1ccccc1	inactive	–
CN(C(=O)c1cc2n(n1)C(C(F)(F)F)CC(c1ccco1)N2)c1ccc(OC(F)(F)F)cc1 (stereo not given)	inactive	–
COc1cccc(C2CC(=O)NC3=C2C(=O)CC(C)(C)C3)c1 (stereo not given)	inactive	–
CCc1ccc(/C=C2\Cc3ccccc3C2=O)cc1	inconclusive: 100 µM [inhibitor, single point]	–
CC(C)(CO)Nc1nc(Nc2ccccc2)nc(Nc2ccccc2)n1	inconclusive: 50.1 µM [inhibitor, partial curve, poor fit]	–
COc1ccc2[nH]c3c(N4CCc5ccccc5C4)ncnc3c2c1	inconclusive: 56.2 µM [inhibitor, partial curve, poor fit]	–
O=C(O)CN(Cc1ccccc1)S(=O)(=O)c1cc(Cl)ccc1Cl	inconclusive: 44.7 µM [inhibitor, partial curve, poor fit]	–
O=[N+]([O-])c1ccc(Nc2ccc(Cl)cc2)c2nonc12	inconclusive: 158 µM [inhibitor, partial curve, poor fit]	–
COc1cccc(/C=C2/SC(=S)N(CCC(=O)N3CCOCC3)C2=O)c1	inactive	–
O=C(CSc1cccc[n+]1[O-])Nc1cc2c(cc1Cl)C(=O)c1ccccc1C2=O	inconclusive: 50.1 µM [inhibitor, partial curve, poor fit]	–
O=C(O)c1ccc(-n2nnnc2SCc2ccccc2Br)cc1	inactive	–
Cc1cc(C)c(NC(=O)c2ccc3c(c2)CCC3)c(Cl)c1	inconclusive: 35.5 µM [inhibitor, partial curve, poor fit]	–
O=C(Nc1ccc(S(=O)(=O)Nc2nccs2)cc1)c1ccncc1	inactive	–
OC(c1ccccc1)(c1ccccc1)C1CCN(CCCOc2cccc(F)c2)CC1	inconclusive: 44.7 µM [inhibitor, single point]	–
COc1ccc2c(c1)c(=Cc1ccc(N(C)C)cc1)c1cc(-c3ccccc3)[n+](C)n12	inconclusive: 50.1 µM [inhibitor, partial curve, poor fit]	–
CC(C)N(Cc1ccccc1)S(=O)(=O)c1cccs1	inconclusive: 100 µM [inhibitor, partial curve, poor fit]	–
O=C(NC[C@H]1O[C@@H](CO)[C@@H](O)[C@H]1N1CCN(c2ccccn2)CC1)c1ccc(F)c(Cl)c1	inconclusive: 17.8 µM [inhibitor, full curve]	–

2 entries drawn at random from those above:
SMILES	Potency	activity change, negative = inhibition
O=C(NC[C@H]1O[C@@H](CO)[C@@H](O)[C@H]1N1CCN(c2ccccn2)CC1)c1ccc(F)c(Cl)c1	inconclusive: 17.8 µM [inhibitor, full curve]	–
COc1ccc2[nH]c3c(N4CCc5ccccc5C4)ncnc3c2c1	inconclusive: 56.2 µM [inhibitor, partial curve, poor fit]	–
